The record followed here is article PMC4299599, “Quantification of cytosolic interactions identifies Ede1 oligomers as key organizers of endocytosis” (Molecular Systems Biology, 2014).

For one test, the target named is T1, Pan1 (S. cerevisiae, UniProt P32521 1-1480).
T1 construct: Pan1, S. cerevisiae; also called Pan1-1myeGFP; Pan1-3mCherry; source: chromosomally tagged at the endogenous locus, in the cytoplasm of living S. cerevisiae cells
T1 sequence (looked up): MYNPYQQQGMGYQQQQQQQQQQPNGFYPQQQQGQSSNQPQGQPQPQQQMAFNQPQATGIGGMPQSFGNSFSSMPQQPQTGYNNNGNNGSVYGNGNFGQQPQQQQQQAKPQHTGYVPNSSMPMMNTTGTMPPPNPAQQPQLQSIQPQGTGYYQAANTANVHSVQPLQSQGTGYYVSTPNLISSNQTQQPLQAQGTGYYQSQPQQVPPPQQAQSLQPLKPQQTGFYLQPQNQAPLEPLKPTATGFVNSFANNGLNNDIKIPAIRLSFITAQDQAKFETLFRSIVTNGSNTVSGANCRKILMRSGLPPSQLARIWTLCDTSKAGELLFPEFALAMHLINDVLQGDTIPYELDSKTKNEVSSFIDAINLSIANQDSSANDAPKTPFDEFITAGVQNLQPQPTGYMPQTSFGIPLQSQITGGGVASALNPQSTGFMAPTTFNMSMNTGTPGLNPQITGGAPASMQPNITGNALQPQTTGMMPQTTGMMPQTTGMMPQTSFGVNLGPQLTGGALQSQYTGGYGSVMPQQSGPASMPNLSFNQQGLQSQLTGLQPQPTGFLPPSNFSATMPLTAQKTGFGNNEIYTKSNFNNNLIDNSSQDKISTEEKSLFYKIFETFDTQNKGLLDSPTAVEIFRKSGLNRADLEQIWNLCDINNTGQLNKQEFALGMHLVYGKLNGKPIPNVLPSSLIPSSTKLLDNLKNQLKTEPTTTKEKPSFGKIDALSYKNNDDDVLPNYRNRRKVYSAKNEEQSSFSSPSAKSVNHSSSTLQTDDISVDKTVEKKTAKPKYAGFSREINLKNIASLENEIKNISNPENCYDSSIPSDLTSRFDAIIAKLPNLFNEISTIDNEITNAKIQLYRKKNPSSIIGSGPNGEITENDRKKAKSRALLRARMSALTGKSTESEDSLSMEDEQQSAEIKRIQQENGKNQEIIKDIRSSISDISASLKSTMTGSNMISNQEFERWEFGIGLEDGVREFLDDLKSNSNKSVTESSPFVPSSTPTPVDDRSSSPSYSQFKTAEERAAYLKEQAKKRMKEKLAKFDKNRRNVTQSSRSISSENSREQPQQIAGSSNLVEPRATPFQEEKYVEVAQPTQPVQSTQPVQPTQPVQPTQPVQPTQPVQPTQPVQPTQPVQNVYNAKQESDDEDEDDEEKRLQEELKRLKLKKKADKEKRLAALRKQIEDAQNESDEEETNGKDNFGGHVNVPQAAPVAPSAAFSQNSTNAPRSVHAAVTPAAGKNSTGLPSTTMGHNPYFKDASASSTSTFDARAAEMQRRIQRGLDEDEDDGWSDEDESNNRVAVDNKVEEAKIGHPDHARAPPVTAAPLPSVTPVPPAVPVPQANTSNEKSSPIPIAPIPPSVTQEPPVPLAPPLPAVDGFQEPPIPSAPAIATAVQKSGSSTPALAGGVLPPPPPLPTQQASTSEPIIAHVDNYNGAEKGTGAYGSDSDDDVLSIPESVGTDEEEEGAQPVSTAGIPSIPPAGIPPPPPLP
In words: condition: 1000 nM (only Kdeff-values < 1000 nM are shown); fluorescence cross-correlation spectroscopy (FCCS); in the cytoplasm of living yeast cells; first-named protein green (3myeGFP or 1myeGFP; eGFP for Don1), second red (3mCherry); self-interaction in diploid strains with one allele of each colour; apparent or effective KD (Kdeff) from single-cell measurements; only Kdeff values < 1000 nM are shown; values for self-interactions are upper limits.

In a further test the target is T2, Ede1 (S. cerevisiae) (UniProt P34216).
T2 sequence: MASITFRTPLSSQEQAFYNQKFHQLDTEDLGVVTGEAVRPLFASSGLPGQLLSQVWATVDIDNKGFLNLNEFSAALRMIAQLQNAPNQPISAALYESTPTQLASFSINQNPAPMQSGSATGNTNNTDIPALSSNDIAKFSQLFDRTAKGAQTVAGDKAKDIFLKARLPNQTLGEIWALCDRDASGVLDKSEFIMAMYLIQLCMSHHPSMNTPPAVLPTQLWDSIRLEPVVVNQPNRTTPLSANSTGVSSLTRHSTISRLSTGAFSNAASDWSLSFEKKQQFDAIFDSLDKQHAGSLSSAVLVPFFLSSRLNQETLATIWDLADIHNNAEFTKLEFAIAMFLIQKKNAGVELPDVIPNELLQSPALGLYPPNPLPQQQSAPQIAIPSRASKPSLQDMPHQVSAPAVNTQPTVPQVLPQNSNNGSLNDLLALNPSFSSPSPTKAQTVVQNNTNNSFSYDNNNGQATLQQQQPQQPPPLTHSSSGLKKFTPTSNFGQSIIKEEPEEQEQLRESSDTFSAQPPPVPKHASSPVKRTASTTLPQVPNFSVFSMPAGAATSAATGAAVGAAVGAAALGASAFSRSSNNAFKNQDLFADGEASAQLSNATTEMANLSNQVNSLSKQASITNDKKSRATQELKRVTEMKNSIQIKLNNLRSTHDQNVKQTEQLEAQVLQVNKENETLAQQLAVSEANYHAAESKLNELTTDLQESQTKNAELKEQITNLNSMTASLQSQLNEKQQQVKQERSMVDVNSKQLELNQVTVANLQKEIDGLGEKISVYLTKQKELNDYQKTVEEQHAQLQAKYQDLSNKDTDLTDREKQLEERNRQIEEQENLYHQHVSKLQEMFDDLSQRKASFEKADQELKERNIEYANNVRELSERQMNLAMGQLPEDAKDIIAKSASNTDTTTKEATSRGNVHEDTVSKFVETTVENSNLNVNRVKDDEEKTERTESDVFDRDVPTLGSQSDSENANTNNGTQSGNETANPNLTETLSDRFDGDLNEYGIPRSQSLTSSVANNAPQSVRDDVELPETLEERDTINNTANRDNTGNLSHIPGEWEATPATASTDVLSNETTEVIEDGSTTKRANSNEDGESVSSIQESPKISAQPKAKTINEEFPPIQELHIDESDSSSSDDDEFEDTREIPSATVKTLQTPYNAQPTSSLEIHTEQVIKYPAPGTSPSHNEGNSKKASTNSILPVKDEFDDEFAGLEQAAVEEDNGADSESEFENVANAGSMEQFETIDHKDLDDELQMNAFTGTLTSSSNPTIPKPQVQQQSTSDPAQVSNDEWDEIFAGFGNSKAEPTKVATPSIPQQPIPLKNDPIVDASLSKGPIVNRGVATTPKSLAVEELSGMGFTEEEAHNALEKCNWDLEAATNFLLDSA
Described as above.

Results are given in words; binding and its absence hold for the method and conditions named.

B1: Yap1802 (protein, UniProt P53309 1-568)
chain: MSSLYTKLVKGATKIKMAPPKQKYVDPILSGTSSARGLQEITHALDIRLSDTAWTIVYKALIVLHLMIQQGEKDVTLRHYSHNLDVFQLRKISHTTKWSSNDMRALQRYDEYLKTRCEEYGRLGMDHLRDNYSSLKLGSKNQLSMDEELDHVESLEIQINALIRNKYSVSDLENHLLLYAFQLLVQDLLGLYNALNEGVITLLESFFELSIEHAKRTLDLYKDFVDMTEYVVRYLKIGKAVGLKIPVIKHITTKLINSLEEHLREETKRQRGEPSEPQQDRKPSTAISSTSSHNNNSNDKNKSIAQKKLEQIREQKRLLEQQLQNQQLLISPTVPQDAYNPFGSQQQDLNNDTFSFEPTQPQMTAQVPQPTANPFLIPQQQQQALQLTSASTMPQPSEIQITPNLNNQQTGMYASNLQYTPNFTGSGFGGYTTTENNAIMTGTLDPTKTGSNNPFSLENIAREQQQQNFQNSPNPFTLQQAQTTPILAHSQTGNPFQAQNVVTSPMGTYMTNPVAGQLQYASTGAQQQPQMMQGQQTGYVMVPTAFVPINQQQQQQQHQQENPNLIDI
Take B1: the binding result with Pan1 and with Ede1 (S. cerevisiae) was “no binding” throughout.
